{"source": "patent US10101324B2", "about": "“Non-competitive immunoassays to detect small molecules using nanopeptamers” (priority 2012, dated 2018)", "system": "MoAb 14D7", "assay": "Noncompetitive nanopeptamer lateral-flow assay for molinate (carbon black-labeled avidin complexed to pA)", "format": "binding"}
{"smiles": "CCSC(=O)N1CCCCCC1", "note": "[Molinate]", "values": [{"measurement": "Lowest molinate concentration detectable in spiked runoff water samples", "setting": "lateral flow, runoff water samples from agricultural areas, all samples", "value": 2.5, "unit": "ng/mL"}, {"measurement": "Improved sensitivity of the noncompetitive over the competitive lateral flow assay", "setting": "molinate, 2.5 vs 32 ng/mL", "value": 10, "unit": "fold"}, {"measurement": "Analyte concentration causing a visible test line over the background", "setting": "noncompetitive lateral flow, buffer, four independent observers, three repetitions", "value": 2.5, "unit": "ng/mL"}, {"measurement": "Matrix interference in lateral flow assay", "setting": "ten runoff water samples of Uruguay spiked with 0, 2.5, 5 and 20 ng/mL molinate, four observers", "value": "did not interfere with assay sensitivity"}]}
